# PubChem BioAssay AID504744, Drosophila RNAi Screening Center, 2011
# Aim: 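Find genes whose loss alters insulin-driven dAkt phosphorylation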 (primary screen)
# Cells: Drosophila Kc167 cells
# Knock-down reagent: long dsRNA against Drosophila genes, 250 ng dsRNA per well of a 384-well plate
# Timing: 3 days of knock-down, then overnight serum-free starvation before stimulation
# Treatment: bovine insulin at 387 nM for 10 minutes after 12 h without serum
# Read-out: 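In-cell antibody fluorescence for phospho-dAkt in each well over DNA-dye signal, with log2 residuals expressed as z-scores adjusted for cell count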
# Active means: 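Hit in the insulin screen when the two-replicate mean z-score is more extreme than plus or minus 2.5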
# The deposit covers about 23,000 reagents; this is a random part of those that have a named target and a result. Of all reagents, 98 (0.43%) were called active. 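Only hit calls are given; the phospho-dAkt signals, z-scores and hit direction were not deposited.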
gene knocked down,amplicon,Outcome
mAcon1 (Mitochondrial aconitase 1),DRSC01853,inactive
CG31823,DRSC01887,inactive
Mvb12 (Multivesicular body subunit 12),DRSC20027,inactive
Jon25Bii (Jonah 25Bii),DRSC03114,inactive
CG7860,DRSC20060,inactive
CG13375,DRSC18621,inactive
ftz (fushi tarazu),DRSC12626,inactive
Cp36 (Chorion protein 36),DRSC18452,inactive
Cln3,DRSC10520,inactive
Sobp (Sine oculis-binding protein),DRSC07312,inactive
CG11617,DRSC00321,inactive
CG11617,DRSC21786,inactive
Cyp316a1 (Cytochrome P450 316a1),DRSC11130,inactive
xmas-1 (retired record),DRSC20386,inactive
CG17896,DRSC18502,inactive
CG7133,DRSC11798,inactive
Mtr4 (Mtr4 helicase),DRSC03560,inactive
CG17746,DRSC08521,inactive
Polr3D (RNA polymerase III subunit D),DRSC10485,active
CG17377,DRSC00950,inactive
CG17377,DRSC02615,inactive
CG17377,DRSC21811,inactive
Hph (HIF prolyl hydroxylase),DRSC12164,inactive
Hph (HIF prolyl hydroxylase),DRSC12251,inactive
CG31223,DRSC15115,inactive
Klp61F (Kinesin-like protein at 61F),DRSC08671,inactive
lili (lilipod),DRSC14143,inactive
Mat89Ba (Maternal transcript 89Ba),DRSC14540,inactive
Dlc90F (Dynein light chain 90F),DRSC16649,inactive
pcm (pacman),DRSC20361,inactive
Fas1 (Fasciclin 1),DRSC16669,inactive
Cyp49a1 (Cytochrome P450 49a1),DRSC06737,inactive
Cyp49a1 (Cytochrome P450 49a1),DRSC07367,inactive
xmas,DRSC21306,inactive
xmas,DRSC22178,inactive
hop (hopscotch),DRSC20340,inactive
CG7646,DRSC11232,inactive
CG32407,DRSC09789,inactive
kipf (kipferl),DRSC15446,inactive
kipf (kipferl),DRSC22871,inactive
asRNA:CR33945 (antisense RNA:CR33945),DRSC14080,inactive
dpr12 (defective proboscis extension response 12),DRSC04814,inactive
dpr12 (defective proboscis extension response 12),DRSC04863,inactive
dpr12 (defective proboscis extension response 12),DRSC04892,inactive
sxe2 (sex-specific enzyme 2),DRSC15692,inactive
Mgat2,DRSC16347,inactive
Gyf (Gigyf),DRSC17202,inactive
Syngr (Synaptogyrin),DRSC06003,inactive
Blos3,DRSC09573,inactive
Unc-115a (Uncoordinated 115a),DRSC12749,inactive
Obp99c (Odorant-binding protein 99c),DRSC16262,inactive
CG3457,DRSC18509,inactive
Aef1 (Adult enhancer factor 1),DRSC11605,inactive
RpS14a (Ribosomal protein S14a),DRSC18710,inactive
Sox100B,DRSC15090,inactive
Sox100B,DRSC16866,inactive
elgi (early girl),DRSC10242,inactive
Argk2 (Arginine kinase 2),DRSC10483,inactive
AspRS (Aspartyl-tRNA synthetase),DRSC05914,inactive
CG32277,DRSC08196,inactive
CG3528,DRSC00611,inactive
RpS24 (Ribosomal protein S24),DRSC04414,inactive
CG42724,DRSC12567,inactive
CG42724,DRSC22275,inactive
CG14014,DRSC02345,inactive
Clbn (Caliban),DRSC14404,inactive
Ugt36A1 (UDP-glycosyltransferase family 36 member A1),DRSC00748,inactive
CR41501 (pseudo),DRSC07785,inactive
Fbl6 (F-box and leucine-rich repeat protein 6),DRSC06335,inactive
CG12118,DRSC17813,inactive
CG31008,DRSC14028,inactive
vri (vrille),DRSC03633,inactive
CG13481,DRSC10023,inactive
fry (furry),DRSC08993,inactive
fry (furry),DRSC10172,inactive
fry (furry),DRSC10709,inactive
fry (furry),DRSC10712,inactive
thw (thawb),DRSC12552,inactive
mthl14 (methuselah-like 14),DRSC07865,inactive
l(3)72Dr (lethal (3) 72Dr),DRSC10478,inactive
Plap (Phospholipase A2 activator protein),DRSC00678,inactive
CG30376,DRSC05086,inactive
Polr1H (RNA polymerase I subunit H),DRSC14594,inactive
Rtel1 (Regulator of telomere elongation helicase 1),DRSC18343,inactive
rhi (rhino),DRSC05996,inactive
CG15545,DRSC15083,inactive
Psf2 (Partner of Sld Five 2),DRSC00516,inactive
ImpE2 (Ecdysone-inducible gene E2),DRSC08665,inactive
Yp2 (Yolk protein 2),DRSC18732,inactive
CG6296,DRSC16013,inactive
Trm1 (tRNA methyltransferase 1),DRSC02951,inactive
Ir52c (Ionotropic receptor 52c),DRSC21801,inactive
CG11596,DRSC18540,inactive
CG10761,DRSC17753,inactive
mesh,DRSC14472,inactive
mesh,DRSC15098,inactive
mesh,DRSC15099,inactive
Npc2f (Niemann-Pick type C-2f),DRSC15980,inactive
CG9444,DRSC16493,inactive
Tehao,DRSC03449,inactive
Vti1b (Vesicle transport through interaction with t-SNAREs 1b),DRSC16283,inactive
Vti1b (Vesicle transport through interaction with t-SNAREs 1b),DRSC16284,inactive
CG2663,DRSC12314,inactive
CG30036,DRSC21334,inactive
CG4860,DRSC15664,inactive
CG4860,DRSC21755,inactive
Ddx56 (DEAD-box helicase 56),DRSC20567,inactive
